From ChEMBL document CHEMBL3988442, “University of Dundee, Small-Polar-MMV Screening Library” (2021).

The chains behind the UniProt entries cited, without tags or fusion partners. Residues count along the entry.
UniProt A4I591, 1-473: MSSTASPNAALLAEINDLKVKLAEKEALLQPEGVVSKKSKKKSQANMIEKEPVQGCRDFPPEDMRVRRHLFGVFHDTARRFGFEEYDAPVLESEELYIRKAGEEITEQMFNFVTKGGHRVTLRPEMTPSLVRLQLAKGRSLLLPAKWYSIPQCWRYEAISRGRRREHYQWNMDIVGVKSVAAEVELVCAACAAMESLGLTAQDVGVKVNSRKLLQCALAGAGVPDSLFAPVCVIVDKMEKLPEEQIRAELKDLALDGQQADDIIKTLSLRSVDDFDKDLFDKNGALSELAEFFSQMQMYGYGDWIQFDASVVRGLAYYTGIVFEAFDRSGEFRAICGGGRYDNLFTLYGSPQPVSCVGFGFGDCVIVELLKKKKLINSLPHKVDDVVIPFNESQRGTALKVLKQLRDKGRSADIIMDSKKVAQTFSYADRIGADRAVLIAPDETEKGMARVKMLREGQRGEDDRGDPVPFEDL

LiHisRS: 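Histidine-tRNA ligase, Leishmania infantum (UniProt A4I591). Enzyme assay of histidyl-tRNA synthetase; the read-out is not stated. Tested at 30 µM. The record gives no direction; compounds that gave an IC50 in retests scored well above the rest, so higher reads as stronger inhibition. The assay is labelled LdHisRS but filed under L. infantum. Size under these conditions: about 69,000 compounds, about 410 of them at 50% or above in at least one test.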
Toxoplasma: 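Assay of Toxoplasma gondii numbers, read through their beta-galactosidase reporter with a colour substrate. Compounds at 10 µM. The record gives no direction; the compounds picked for IC50 retests had high values, so higher reads as fewer parasites. Of about 67,000 compounds tested this way, about 260 (0.38%) reached 50% or more in at least one test.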

Results are given as percent effect. The record does not define 0% and 100%; most values in the screen are far below 50% and negative numbers occur (in some assays of this library far below -100). This is an unselected part of the compounds tested.

{"compound": "Cc1cc(NC(=O)CNC(C)(C)c2nc(C)c(C)s2)no1", "LiHisRS": 6.25, "Toxoplasma": -16.75}
{"compound": "CC(C)CC(=O)Nc1ccccc1Oc1ccsc1C(=O)O", "LiHisRS": 10.42, "Toxoplasma": -4.899}
{"compound": "COc1cccc(C(=O)NCc2ccccc2S(=O)(=O)N(C)CCO)c1", "LiHisRS": 0, "Toxoplasma": 0.8759}
{"compound": "O=C(O)C(F)(F)F.[H][C@@]12CN(CC3CCC3)C[C@]1([H])OCCN2c1cnccn1", "Toxoplasma": -11.95}
{"compound": "COC(=O)COc1cc(NCc2c(C)noc2C)c(Cl)cc1C", "LiHisRS": 11.46, "Toxoplasma": -0.7956}
{"compound": "CSc1cccc(CNC(=O)[C@H]2CNC[C@H](C(=O)N3CCOCC3)C2)c1", "LiHisRS": 3.279, "Toxoplasma": -33.7}
{"compound": "Cc1cc(NC(=O)CN2CCCC2Cn2nc(C)nc2C)n(C)n1", "stereo": "stereo not drawn", "LiHisRS": 9.649, "Toxoplasma": 3.215}
{"compound": "Fc1ccc(CN2CCC3(CCN(Cc4nccs4)CC3)C2)cc1", "LiHisRS": 22}
{"compound": "Cc1cc(NC(=O)NCC(O)c2ccc(F)cc2)n(C)n1", "stereo": "stereo not drawn", "LiHisRS": 9.174, "Toxoplasma": -45.44}
{"compound": "Cc1csc([C@@H]2C[C@@H]3CCN(Cc4cc(C)on4)C[C@H]3O2)n1", "LiHisRS": 15.32}
{"compound": "CC(C)N(C)Cc1cc(=O)n2c(n1)CN(C(=O)c1ccnnc1)CCC2", "LiHisRS": 11.32, "Toxoplasma": 0.4818}
{"compound": "FC1(F)CCN(Cc2cccnc2)CC12CCN(c1ccccn1)C2.O=C(O)C(F)(F)F.O=C(O)C(F)(F)F.O=C(O)C(F)(F)F", "stereo": "stereo not drawn", "Toxoplasma": 1.13}
{"compound": "Cc1ccc(CN2Cc3nnn(C)c3C(COCc3ccccn3)C2)s1.O=C(O)C(F)(F)F.O=C(O)C(F)(F)F", "stereo": "stereo not drawn", "Toxoplasma": 13.37}
{"compound": "CN(Cc1ccsc1)C(=O)c1n[nH]c(N)c1-c1ccccc1", "LiHisRS": 21.43, "Toxoplasma": -5.381}
{"compound": "Cc1cnc2c(S(=O)(=O)NC3CCS(=O)(=O)C3)cccc2c1", "stereo": "stereo not drawn", "LiHisRS": 4.386, "Toxoplasma": -10.37}
{"compound": "Cn1ncc2c(N3CCCN(C(=O)c4ccsc4)CC3)ncnc21", "LiHisRS": 3.571, "Toxoplasma": -17.09}
{"compound": "CC(C)Cc1cc(C(=O)N2CCCN(c3ncccn3)CC2)[nH]n1", "LiHisRS": 12.5, "Toxoplasma": -4.334}
{"compound": "O=C(O)C(F)(F)F.O=C(O)C(F)(F)F.O=C(O)C(F)(F)F.[H][C@@]12OCCC[C@]1([H])N(Cc1nccn1C)C[C@@H]2N1CCOCC1", "Toxoplasma": -17.23}
{"compound": "CCOC(=O)c1n[nH]cc1-c1cncn1CCn1nc(C)c(C)c1C", "LiHisRS": 6.207}
{"compound": "Cc1cc(C(C)NC(=O)N2CCC(n3cncn3)CC2)c(C)s1", "stereo": "stereo not drawn", "LiHisRS": 7.865}
{"compound": "Cc1nc[nH]c1CN1CCc2nc3scc(C)c3c(=O)n2CC1", "LiHisRS": 1.053}
{"compound": "Cc1cc(C(=O)N2CCc3ncnc(N4CCSCC4)c3CC2)[nH]n1", "LiHisRS": 10.99, "Toxoplasma": -6.422}
{"compound": "CCOCC(=O)N1CCC2(CC1)COCCN2CCOC", "LiHisRS": 10}
{"compound": "O=C1CC2(CCN(C(=O)c3ccccn3)C2)Nc2ccccc2N1", "stereo": "stereo not drawn", "LiHisRS": 6.897, "Toxoplasma": -1.62}

3 of the entries, repeated:

{"compound": "O=C1CC2(CCN(C(=O)c3ccccn3)C2)Nc2ccccc2N1", "stereo": "stereo not drawn", "LiHisRS": 6.897, "Toxoplasma": -1.62}
{"compound": "COC(=O)COc1cc(NCc2c(C)noc2C)c(Cl)cc1C", "LiHisRS": 11.46, "Toxoplasma": -0.7956}
{"compound": "COc1cccc(C(=O)NCc2ccccc2S(=O)(=O)N(C)CCO)c1", "LiHisRS": 0, "Toxoplasma": 0.8759}